The list shows a part of the results. This data set is noisy: repeats of one test often differ as much as different tests do.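 A first-round screen of about ten thousand compounds sought those raising reporter output, using human embryonic kidney cells briefly transfected with a plasmid carrying a Renilla luciferase gene driven by the HSV-TK promoter.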

This experiment has as its system HEK 293FT. The experiment can be described thus: log relative Renilla luciferase luminescence (reporter expression vs reference, reference not stated) (log (base not stated)); higher = higher recombinant reporter expression. The note with it: 10 µM; time after transfection 48 h. As for the experimental part: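 HEK 293FT cells transiently transfected with pRL-TK (Renilla luciferase) were treated with compounds at 10 uM and luminescence was read about 42 h later. Values are log relative Renilla luminescence (log base and reference not stated). Single-pass screen; 2080 natural products library.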
For the compound `C=C(C)[C@@H]1CC[C@]2(C)[C@H](CC[C@@H]3[C@@H]([C@]4(C)CCC(O)(C(C)(C)O)O4)CC[C@]32C)[C@@]1(C)CCC(=O)O` (stereo not given in full) [Aglinin A], the log came to 0.156.
The same measure for `COc1cc(/C=C/C(N)=O)ccc1O` [Ferulamide]: -0.00294; for `COc1cc(OC)c2ccc(=O)oc2c1OC/C=C(\C)CCC=C(C)C` [8-Geranyloxy-5,7-dimethoxycoumarin]: -0.0232; for `O=c1ccc2nccc3c4ccccc4n1c23` [Canthin-6-one]: -0.204.
The same measure for `CC[C@H](CC[C@@H](C)[C@H]1CC[C@H]2[C@@H]3CC=C4C[C@@H](O[C@@H]5O[C@H](CO)[C@@H](O)[C@H](O)[C@H]5O)CC[C@]4(C)[C@H]3CC[C@]12C)C(C)C` [Daucosterol]: 0.0497; for `COc1ccc(-c2oc3cc(OC)c(OC)c(OC(C)=O)c3c(=O)c2OC)cc1OC` [Artemetin acetate]: -0.0636; for `O=C1c2c(O)cc(O)cc2OC1(O)Cc1cc(O)c(O)c(O)c1` (stereo not given) [Amaronol A]: 0.0294.
On to `CC(C)C1=C(O)C(=O)C2=C(C1=O)[C@H](O)C[C@H]1C(C)(C)CCC[C@]21C` [Horminone], for which the log turned out to be 0.212.
Regarding `CCCCCCCCCCCCCCCCCCCCCC[C@@H](O)C(=O)N[C@@H](CO)[C@H](O)[C@H](O)CCCCCCCCCCCCCC` [2-(2'-Hydroxytetracosanoylamino)-octadecane-1,3,4-triol], the log came out at 0.114.
For the compound `COc1cc(C[C@@H](C)[C@H](C)Cc2ccc(O)c(OC)c2)ccc1O` [Dihydroguaiaretic acid], the log is -0.148.
The same measure for `C[C@@H]1CO[C@@]2(C[C@@H]1OC(=O)c1ccc(O)cc1)O[C@@H]1C[C@@H](C(=O)O)C[C@H](O)[C@]1(O)C2=O` [Glochicoccin D]: 0.134.
Take `COc1cc2oc(-c3ccc(O)cc3)cc(=O)c2c(O)c1OC` [Cirsimaritin]: the log was -1.03.
The same measure for `O[C@H]1CCN2Cc3ccccc3N=C12` [Vasicine]: -0.121; for `COc1cccc2c1[nH]c1c(C3CCCc4c5[nH]c6c(OC)cccc6c5c(OC)c[n+]43)ncc(OC)c12` (stereo not given) [Picrasidine S]: -0.168.
In the case of `CC(=O)O[C@H]1C[C@@]2(O)[C@@H](OC(C)=O)[C@@H]3[C@@]4(CO4)[C@@H](OC(C)=O)C[C@H](OC(C)=O)[C@@]3(C)[C@@H](OC(C)=O)[C@H](OC(C)=O)C(=C1C)C2(C)C` [1-Hydroxybaccatin I], the log was -0.363.
The same measure for `CC(C)=CCc1c(O)cc(O)c2c1O[C@H](c1ccccc1)CC2=O` [Glabranin]: 0.186; for `COC1=CC(=O)/C(=C(\C=C\c2ccccc2)OC)C1=O` [Methyllucidone]: -0.0923; for `C=C1C(=O)O[C@@H]2C3O[C@]3(C)CC/C=C(\C)C[C@@H](OC(C)=O)[C@@H]12` (stereo not given in full) [Lipiferolide]: 0.0106.
Regarding `COc1c2ccoc2nc2c(OC)cccc12` [gamma-Fagarine], the log is -0.518.
Then `C=C1CC[C@@H]2[C@H]([C@H]3[C@H]1CC[C@]3(C)O)C2(C)C` [Spathulenol], with 0.0352; and `C/C(=C\C(=O)C[C@@H](C)[C@H]1CC[C@@]2(C)[C@@H]3CC[C@H]4C(C)(C)C(=O)CC[C@@]45C[C@@]35CC[C@]12C)C(=O)O` [3,23-dioxo-9,19-Cyclolanost-24-en-26-oic acid], with -0.129.
Then `COc1cc(OC)c2ccc(=O)oc2c1OCC=C(C)C` [Artanin], with -0.21; and `CC(C)(O)[C@H]1CC[C@@](C)([C@H]2CC[C@]3(C)[C@@H]2[C@H](O)C[C@@H]2[C@@]4(C)CCC(=O)C(C)(C)[C@@H]4CC[C@]23C)O1` [20S,24R-Epoxy-dammar-12,25-diol-3-one], with -0.0473; and `C[C@H]1COC2=C1C(=O)C(=O)c1c2ccc2c1CCCC2(C)C` [Cryptotanshinone], with -0.441.
Then `C[C@@H]1C[C@H]2O[C@@]3(O[C@@H]2C(C)(C)O)[C@H](O)[C@@]2(C)[C@@H]4CC[C@H]5C(C)(C)[C@@H](O[C@@H]6OC[C@@H](O)[C@H](O[C@@H]7OC[C@@H](O)[C@H](O)[C@H]7O)[C@H]6O)CC[C@@]56C[C@@]46CC[C@]2(C)[C@@H]13` [Cimiside B], with 0.226.
For the compound `CC(=O)Oc1ccc(C2CC(=O)c3c(OC(C)=O)cc(OC(C)=O)cc3O2)cc1` (stereo not given) [Naringenin triacetate], the log is 0.0164.
With `CC1(C)C(=O)C=C[C@@]2(C)C1=C(O)C(=O)[C@]1(C)[C@@H]2[C@@H](O)CC2=C(c3ccoc3)C[C@@H](O)[C@]21C` [Walsuronoid B], the log is -0.494.
The same measure for `CC(=O)Oc1ccc([C@@H]2CC(=O)c3c(O)cc(OC(C)=O)cc3O2)cc1` [Naringenin-4',7-diacetate]: 0.0391; for `COc1cc(/C=C/CO)ccc1O[C@@H]1O[C@H](CO)[C@@H](O)[C@H](O)[C@H]1O` [Coniferin]: -0.00814; for `C[C@H](CCC=C(CO)CO)[C@H]1CC[C@@]2(C)C3=CC[C@H]4C(C)(C)C(=O)CC[C@]4(C)C3=CC[C@]12C` [Ganoderiol F]: 0.183.
On to `O=c1ccn([C@@H]2O[C@H](CO)[C@@H](O)[C@H]2O)c(=O)[nH]1` [Uridine], for which the log came to 0.015.
Take `CC(C)=CCc1c(O)ccc2c1O[C@H]1c3ccc(O)cc3OC[C@@H]21` [Phaseollidin]: the log was determined as 0.13.
Then `C=C(C)C(O)CC/C(C)=C/COc1c2occc2cc2ccc(=O)oc12` (stereo not given) [Lansiumarin C], with 0.101.
The same measure for `COc1c2occc2c(OC)c2c(=O)cc(C)oc12` [Khellin]: 0.00611.
Turning to `C=C1C(=O)OC2C=C(C)CCC=C(C)CC(OC(C)=O)C12` (stereo not given) [Epitulipinolide], the log was 0.0607.
Then `C[C@@H]1C[C@H]2O[C@@]3(O[C@@H]2C(C)(C)O)[C@H](O)[C@@]2(C)[C@@H]4CC[C@H]5C(C)(C)[C@@H](O[C@@H]6OC[C@@H](O)[C@H](O)[C@H]6O)CC[C@@]56C[C@@]46CC[C@]2(C)[C@@H]13` [Cimigenoside], with 0.0514; and `CC[C@@H](CC[C@@H](C)[C@H]1CC[C@H]2[C@@H]3C(=O)C=C4C[C@@H](O)CC[C@]4(C)[C@H]3CC[C@]12C)C(C)C` [3beta-Hydroxyporiferast-5-en-7-one], with 0.075.
The same measure for `CC(=O)O[C@H]1CC[C@]2(C)[C@H]3C=C[C@]45OC(=O)[C@@]6(CC[C@@H](C)[C@H](C)[C@H]64)CC[C@@]5(C)[C@]3(C)CC[C@H]2C1(C)C` [3-Acetoxy-11-ursen-28,13-olide]: -0.0844; for `CCCCCCCCCCCCCCCCCCCCCCOC(=O)/C=C/c1ccc(O)c(O)c1` [Docosyl caffeate]: -0.341; for `CC1(C)OC(=O)C=C[C@]2(C)[C@H]3[C@@H](O)C[C@@]4(C)[C@H](c5ccoc5)OC(=O)[C@H]5O[C@]54[C@]3(C)C(=O)C[C@@H]12` [Zapoterin]: 0.011.
